# Data from the odorant receptor screen of Mainland et al. (2015).
# Values joined by “and” are separate entries in the source; they are usually repeats but may differ in a detail not shown here. Identical values can stand only once. Some of the results follow. Each value is one well over the wells without odorant, computed here; the data are noisy.
# Tests used:
# Assay in all cases: odorant receptor activation (CRE luciferase / Renilla) (fold of no-odor wells); higher = more activation
# Details in all cases: 100 µM
# OR4F15 clone 1074 = test system: OR4F15 clone 1074
# OR4F15 clone 1434 = test system: OR4F15 clone 1434
# OR4F16 clone 1060 = test system: OR4F16 clone 1060
# OR4F17 clone 1161 = test system: OR4F17 clone 1161
# OR4F21 clone 1580 = test system: OR4F21 clone 1580
# OR4F4 clone 1556 = test system: OR4F4 clone 1556
# OR4F5 clone 1557 = test system: OR4F5 clone 1557
# OR4F6 clone 1058 = test system: OR4F6 clone 1058
# OR4F6 clone 1537 = test system: OR4F6 clone 1537
# OR4K1 R89H clone 1269 = test system: OR4K1 R89H clone 1269
# OR4K13 clone 1266 = test system: OR4K13 clone 1266
# OR4K14 clone 1276 = test system: OR4K14 clone 1276
# [1] = test system: OR4K15 N65S/E88V/S93A/A231E/L280P/I286M clone 1566
# OR4K17 clone 1319 = test system: OR4K17 clone 1319
# OR4K17 clone 1420 = test system: OR4K17 clone 1420
# OR4K2 clone 1258 = test system: OR4K2 clone 1258
# OR4K3 clone 1259 = test system: OR4K3 clone 1259
# OR4K5 clone 1261 = test system: OR4K5 clone 1261
# OR4L1 R52S clone 1265 = test system: OR4L1 R52S clone 1265
# OR4M1 clone 1559 = test system: OR4M1 clone 1559
Structure (SMILES),odorant receptor activation (OR4F15 clone 1074),odorant receptor activation (OR4F15 clone 1434),odorant receptor activation (OR4F16 clone 1060),odorant receptor activation (OR4F17 clone 1161),odorant receptor activation (OR4F21 clone 1580),odorant receptor activation (OR4F4 clone 1556),odorant receptor activation (OR4F5 clone 1557),odorant receptor activation (OR4F6 clone 1058),odorant receptor activation (OR4F6 clone 1537),odorant receptor activation (OR4K1 R89H clone 1269),odorant receptor activation (OR4K13 clone 1266),odorant receptor activation (OR4K14 clone 1276),odorant receptor activation [1],odorant receptor activation (OR4K17 clone 1319),odorant receptor activation (OR4K17 clone 1420),odorant receptor activation (OR4K2 clone 1258),odorant receptor activation (OR4K3 clone 1259),odorant receptor activation (OR4K5 clone 1261),odorant receptor activation (OR4L1 R52S clone 1265),odorant receptor activation (OR4M1 clone 1559)
CC(C)CCC(=O)O [4-methylvaleric acid],1.85,1.44,1.95,1.5,0.694,1.25,1.53,1.66,0.936,1.27,1.12,0.84,0.864,1.2,0.826,1.17,0.971,1.72,1.36,1.17
CCCC(=O)O [butyric acid],1.23,0.213,1.18,1.04,1.57,1.07,1.03,1.19,1.13,1.14,0.941,0.884,0.786,0.792,0.213,1.02,1.09,1.31,0.843,1.51
CC12C=CCC1C1CCC3=CC(=O)CCC3(C)C1CC2 (stereo unspecified) [androstadienone],1.58,0.911,0.766,1,,,,1.55,1.07 and 1.13,1.02 and 0.733,1.15 and 0.961,1.48 and 1.02,,0.768 and 0.791,0.891,0.947 and 1.13,1.39 and 1.13,1.09 and 1.15,0.943 and 1.05,
CC(=O)c1ccccc1 [acetophenone],0.917,1.06,0.587,1.39,,,,1.26,1.12 and 0.989,1.67,1.03,0.448,,2.76,0.921,1.01,2.33,1.3,2.04,
CC1=NC(C)SC1C (stereo unspecified),0.564,0.987,0.881,0.862,,,,0.817,0.67 and 0.963,4.23,1.27,1.37,,1.95,1.02,0.591,1.44,2.22,2.19,
CCCCCCCCCC=O [decyl aldehyde],0.793,1.08,1.07,1.25,0.748,0.929,1.12,1.12,1.47,1.27,1.53,1.3,1.48,1.45,1.4,1.22,1.3,1.1,1.3,0.864
C=CCSCC=C [diallyl sulfide],0.821,1.01,0.823,1.02,0.692,0.859,1.17,0.976,1.5,1.01,1.17,0.925,1.55,1.28,1.25,1.04,1.21,0.886,0.847,0.837
O=CCc1ccccc1 [phenyl acetaldehyde],1.3,1.42,1.21,1.14,2.28,1.82,1.77,1.17,1.2,1.12,1.14,1.39,3.59,1.13,1.45,1.35,1.32,1.11,1.42,1.45
CCCCCCC=O [heptaldehyde],0.788 and 1.87,0.975 and 0.817,0.843 and 0.705,0.471 and 0.858,0.775,0.747,0.806,1.68 and 2.07,,0.683 and 0.997 and 0.76,0.557 and 0.831 and 1,,0.928,1.25 and 0.722 and 0.911,0.883 and 0.833,0.413 and 1.19 and 0.706,0.531 and 1.13 and 0.737,0.838 and 0.835 and 1.03,1.2 and 0.817 and 0.92,0.872
CC(C)(C)c1ccc(CCC=O)cc1 [bourgeonal],0.881,0.169,0.737,0.884,,,,0.783,0.847,0.934,0.718,0.828,,0.602,0.167,0.921,0.782,0.856,0.617,
CCCCCC(C)=O [2-heptanone],0.611,0.83,1.17,1.12,,,,1.54,0.71 and 0.624,1.19,3.8,0.901,,2.57,0.907,2.74,1.25,2.05,5.41,
O=C1CCCCC1 [Cyclohexanone],1.73,1.02,0.81,0.721,,,,0.388,0.589 and 0.801,0.624,0.588,0.408,,0.954,0.817,0.278,0.343,0.418,0.862,
COc1cc(C=O)ccc1O [vanillin],0.984,0.939,1.19,1.03,1.38,0.909,1.25,0.94,0.922,0.87,0.83,1.03,0.713,0.974,1,0.988,0.978,0.785,1.07,1.12
"CC1CCC(C(C)C)C(O)C1 (single isomer, unassigned; (-)) [(-)-menthol]",2.6,1.49,3.14,1.2,0.983,1.57,1.64,3.36,3.08,0.854,0.576,0.6,1.12,0.854,1.02,0.914,0.438,0.743,0.722,1.35
CC12C=CCC1C1CCC3CC(=O)CCC3(C)C1CC2 (stereo unspecified) [androstenone],1.56,1.4,2.1,7.77,,,,1.8,1.07,1.03,1.02,1.31,,0.959,0.788,1.59,1.01,1.37,1.81,
C=CC(C)(O)CCC=C(C)C (stereo unspecified) [linalool],1.07,1.1,1.42,0.863,0.675,1.1,1.06,1.32,0.926,0.954,0.936,1.01,0.856,0.908,1.15,0.792,0.857,0.915,1.08,0.881
CCCCO [1-butanol],4.31,1.66,2.75,1.2,0.765,1.34,1.53,3.69,1.12,1.3,1.05,0.767,1.13,1.11,1.03,1.19,0.904,1.47,1.31,1.2
COC(=O)c1ccccc1O [methyl salicylate],1.03,0.995,1.12,0.705,0.686,1.02,0.981,1.2,1.16,0.764,0.88,1.05,0.831,0.918,1,0.775,0.741,0.752,0.956,1.03
CC12CCC(CC1)C(C)(C)O2 [cineole],0.969,0.182,0.823,0.751,0.957,0.875,0.871,0.938,0.88,1.31,0.881,0.993,0.936,1.03,0.197,1.09,1.1,1.08,0.946,1.1
CC1COCc2cc3c(cc21)C(C)(C)C(C)C3(C)C (stereo unspecified) [galaxolide],3.02,2.56,3.25,3.28,,1.47 and 3.89,1.82 and 2.4,2.62,,1.55 and 4.56,1.09 and 1.94,1.56 and 1.14,,,3.34,3.86 and 1.5,3.14 and 3.91,,1.22 and 1.24,0.83 and 1.25
CC(C)CC(=O)O [isovaleric acid],0.925,0.855,1.13,1.15,0.74,1.01,1.22,0.887,0.879,0.827,0.725,0.783,0.979,0.835,0.84,0.733,0.792,0.987,0.815,0.855
CC1=CCC(C(C)(C)O)CC1 (stereo unspecified) [terpineol],0.928,0.997,0.982,1.2,1.1,2.48,0.979,1.21,0.911,0.81,0.932,0.917,0.997,0.995,0.943,0.821,1.1,0.776,1.01,0.798
CC=Cc1ccc(O)c(OC)c1 [isoeugenol],2.93,1.34,0.619,1.37,3.14,0.911,1,1.36,1.03 and 1.92,1.02 and 1.49,1.42 and 0.875,1.54 and 1.02,4.7,0.865 and 1.36,1.53,1.57 and 0.833,1.72 and 1.55,1.12 and 1.93,1.05 and 1.08,0.788
CC(C)(O)CCCC1=CCC(C=O)CC1 (stereo unspecified) [lyral],,,,,1.01,2.92,1.27,,,,,,1.13,,,,,,,1.15
C=CCc1ccc(OC)c(OC)c1 [eugenol methyl ether],1.21,1.66,1.11,1.47,0.744,0.519,0.819,1.67,1.54,1.36,1.63,1.73,0.648,1.43,1.39,1.99,1.62,1.35,1.52,0.726
C=CCc1ccc(O)c(OC)c1 [eugenol],0.865 and 1.26,1.3 and 1.54,1.8 and 1.05,3.21 and 1.16,1.05,1.23,1.56,1.19 and 1.4,1.39 and 1.34 and 1.29,1.29 and 1.36,1.85 and 1.42,1.52 and 1.63,1.13,1.48 and 1.45,1.39 and 1.23,1.35 and 1.83,,3.57 and 1.19,2.24 and 1.36,1.44
CC12CCC(C1)C(C)(C)C2=O (stereo unspecified) [fenchone],0.781,0.936,1.06,0.884,0.647,0.621,0.915,1.23,1.18,1.12,1.05,1.18,0.655,1.06,0.914,1.1,0.972,0.922,0.867,0.8
C=C(C)C1CCC2=CC(=O)CC(C)C2(C)C1 (stereo unspecified) [amyl laurate],,,,,1.16,1.84,1.01,,,,,,1.63,,,,,,,0.738
COC(=O)c1ccccc1 [methyl benzoate],1.12,0.696,0.718,1.41,,,,1.71,0.828 and 1.02,0.811,0.785,0.421,,0.867,0.793,0.445,0.631,1.97,1.55,
C=C(C)C1CC=CCC1 (stereo unspecified) [r-limonene],1.49 and 0.675,1.11 and 0.984,1.26 and 1.08,1.22 and 0.546,1.35,0.971,1.1,1.18 and 1.21,1.28 and 0.682 and 0.814,0.651 and 0.564,0.711 and 0.635,0.806 and 0.387,0.994,0.763 and 0.34,1.23 and 0.941,,0.822 and 0.378,0.584 and 0.343,1.02 and 1.25,1.09
